# Assay results from the supplement of paper PMC10849652.
# Chains of the proteins cited; added tags and fusions are not shown. Lines headed by an entry give the natural chain unless they say otherwise; changes in a name come on top.
# UniProt Q15628: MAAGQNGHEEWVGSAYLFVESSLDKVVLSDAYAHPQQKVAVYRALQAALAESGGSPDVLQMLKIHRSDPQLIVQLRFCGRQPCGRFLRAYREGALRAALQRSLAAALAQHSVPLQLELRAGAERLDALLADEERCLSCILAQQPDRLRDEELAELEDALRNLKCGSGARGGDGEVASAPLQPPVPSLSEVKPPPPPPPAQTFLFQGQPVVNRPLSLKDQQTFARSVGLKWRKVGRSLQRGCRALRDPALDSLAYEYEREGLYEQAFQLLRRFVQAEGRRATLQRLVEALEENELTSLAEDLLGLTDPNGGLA
# UniProt Q07912: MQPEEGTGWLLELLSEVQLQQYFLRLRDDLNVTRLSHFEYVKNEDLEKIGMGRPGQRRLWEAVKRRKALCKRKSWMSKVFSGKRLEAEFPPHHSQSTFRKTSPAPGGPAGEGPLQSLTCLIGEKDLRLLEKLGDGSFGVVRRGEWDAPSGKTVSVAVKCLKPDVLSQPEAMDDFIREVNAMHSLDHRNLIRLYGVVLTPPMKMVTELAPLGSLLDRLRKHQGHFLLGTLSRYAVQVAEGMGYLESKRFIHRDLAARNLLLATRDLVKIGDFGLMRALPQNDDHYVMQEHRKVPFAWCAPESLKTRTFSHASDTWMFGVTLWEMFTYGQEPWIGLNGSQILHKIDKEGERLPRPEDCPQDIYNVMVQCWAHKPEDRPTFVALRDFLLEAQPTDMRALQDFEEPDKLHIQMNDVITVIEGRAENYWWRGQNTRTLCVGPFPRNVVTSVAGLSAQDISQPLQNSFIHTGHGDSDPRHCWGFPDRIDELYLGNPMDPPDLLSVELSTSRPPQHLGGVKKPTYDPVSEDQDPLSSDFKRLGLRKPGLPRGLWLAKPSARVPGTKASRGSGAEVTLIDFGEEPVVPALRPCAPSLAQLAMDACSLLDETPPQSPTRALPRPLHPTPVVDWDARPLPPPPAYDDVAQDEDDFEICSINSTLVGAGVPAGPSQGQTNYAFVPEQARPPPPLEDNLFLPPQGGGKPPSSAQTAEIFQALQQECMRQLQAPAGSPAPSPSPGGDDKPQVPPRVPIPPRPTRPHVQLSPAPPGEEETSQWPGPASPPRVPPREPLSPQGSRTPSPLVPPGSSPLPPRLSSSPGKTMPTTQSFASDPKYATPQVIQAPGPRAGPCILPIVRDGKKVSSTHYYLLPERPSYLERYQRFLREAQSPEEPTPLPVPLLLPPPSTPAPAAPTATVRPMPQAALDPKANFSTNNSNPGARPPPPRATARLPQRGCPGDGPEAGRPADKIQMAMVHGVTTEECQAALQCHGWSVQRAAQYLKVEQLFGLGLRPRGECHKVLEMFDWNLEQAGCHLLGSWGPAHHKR
# UniProt O95271: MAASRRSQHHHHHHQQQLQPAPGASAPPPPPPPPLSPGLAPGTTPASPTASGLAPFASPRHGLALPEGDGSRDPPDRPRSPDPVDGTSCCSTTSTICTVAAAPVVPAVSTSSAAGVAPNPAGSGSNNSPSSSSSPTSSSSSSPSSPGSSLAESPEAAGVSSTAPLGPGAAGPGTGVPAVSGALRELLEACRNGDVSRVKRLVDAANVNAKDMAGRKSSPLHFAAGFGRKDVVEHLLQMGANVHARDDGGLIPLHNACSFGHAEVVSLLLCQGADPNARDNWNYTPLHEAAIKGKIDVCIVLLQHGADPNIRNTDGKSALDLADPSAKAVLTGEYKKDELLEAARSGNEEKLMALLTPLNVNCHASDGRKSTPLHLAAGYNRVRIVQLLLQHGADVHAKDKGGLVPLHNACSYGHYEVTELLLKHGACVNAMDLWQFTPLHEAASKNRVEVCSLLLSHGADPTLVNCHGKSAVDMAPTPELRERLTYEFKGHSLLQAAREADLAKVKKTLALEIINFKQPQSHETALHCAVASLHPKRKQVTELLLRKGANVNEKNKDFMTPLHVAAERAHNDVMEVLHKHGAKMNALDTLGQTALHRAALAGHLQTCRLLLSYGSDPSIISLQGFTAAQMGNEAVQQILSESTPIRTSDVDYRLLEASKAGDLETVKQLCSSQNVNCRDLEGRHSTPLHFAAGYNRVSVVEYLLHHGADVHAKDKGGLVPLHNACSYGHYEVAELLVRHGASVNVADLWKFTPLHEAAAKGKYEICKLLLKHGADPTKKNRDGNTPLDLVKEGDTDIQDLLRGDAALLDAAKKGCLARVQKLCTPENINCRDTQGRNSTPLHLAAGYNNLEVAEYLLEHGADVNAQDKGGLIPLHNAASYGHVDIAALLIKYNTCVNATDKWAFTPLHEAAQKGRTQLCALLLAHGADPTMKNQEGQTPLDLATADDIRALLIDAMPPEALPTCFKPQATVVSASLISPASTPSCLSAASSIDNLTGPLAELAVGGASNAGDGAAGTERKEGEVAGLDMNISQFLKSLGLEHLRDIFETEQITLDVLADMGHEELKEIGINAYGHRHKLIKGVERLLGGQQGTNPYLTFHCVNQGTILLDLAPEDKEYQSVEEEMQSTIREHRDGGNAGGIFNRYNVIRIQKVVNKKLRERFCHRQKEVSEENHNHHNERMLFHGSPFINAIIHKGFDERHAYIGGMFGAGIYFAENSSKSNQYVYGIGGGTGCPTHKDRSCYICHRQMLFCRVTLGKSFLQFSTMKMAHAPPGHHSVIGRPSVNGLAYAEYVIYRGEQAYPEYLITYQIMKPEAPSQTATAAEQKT
# UniProt Q8TDR0: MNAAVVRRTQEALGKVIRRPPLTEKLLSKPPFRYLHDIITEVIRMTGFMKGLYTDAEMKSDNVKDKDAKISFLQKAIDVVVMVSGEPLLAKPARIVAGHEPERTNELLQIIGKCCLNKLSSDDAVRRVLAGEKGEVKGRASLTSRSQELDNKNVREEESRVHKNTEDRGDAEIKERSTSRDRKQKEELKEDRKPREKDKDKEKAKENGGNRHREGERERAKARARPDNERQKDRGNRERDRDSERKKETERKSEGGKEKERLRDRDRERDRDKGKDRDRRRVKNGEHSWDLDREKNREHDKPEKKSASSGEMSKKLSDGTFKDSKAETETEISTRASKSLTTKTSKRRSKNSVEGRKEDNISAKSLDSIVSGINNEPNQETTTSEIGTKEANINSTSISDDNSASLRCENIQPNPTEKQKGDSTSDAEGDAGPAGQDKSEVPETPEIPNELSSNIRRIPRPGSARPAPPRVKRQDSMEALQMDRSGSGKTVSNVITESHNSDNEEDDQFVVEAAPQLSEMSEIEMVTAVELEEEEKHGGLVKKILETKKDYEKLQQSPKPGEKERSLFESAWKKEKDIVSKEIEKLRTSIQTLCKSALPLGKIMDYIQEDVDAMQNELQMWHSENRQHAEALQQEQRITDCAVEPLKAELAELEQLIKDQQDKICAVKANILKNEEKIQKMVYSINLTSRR
# UniProt Q9UPN9: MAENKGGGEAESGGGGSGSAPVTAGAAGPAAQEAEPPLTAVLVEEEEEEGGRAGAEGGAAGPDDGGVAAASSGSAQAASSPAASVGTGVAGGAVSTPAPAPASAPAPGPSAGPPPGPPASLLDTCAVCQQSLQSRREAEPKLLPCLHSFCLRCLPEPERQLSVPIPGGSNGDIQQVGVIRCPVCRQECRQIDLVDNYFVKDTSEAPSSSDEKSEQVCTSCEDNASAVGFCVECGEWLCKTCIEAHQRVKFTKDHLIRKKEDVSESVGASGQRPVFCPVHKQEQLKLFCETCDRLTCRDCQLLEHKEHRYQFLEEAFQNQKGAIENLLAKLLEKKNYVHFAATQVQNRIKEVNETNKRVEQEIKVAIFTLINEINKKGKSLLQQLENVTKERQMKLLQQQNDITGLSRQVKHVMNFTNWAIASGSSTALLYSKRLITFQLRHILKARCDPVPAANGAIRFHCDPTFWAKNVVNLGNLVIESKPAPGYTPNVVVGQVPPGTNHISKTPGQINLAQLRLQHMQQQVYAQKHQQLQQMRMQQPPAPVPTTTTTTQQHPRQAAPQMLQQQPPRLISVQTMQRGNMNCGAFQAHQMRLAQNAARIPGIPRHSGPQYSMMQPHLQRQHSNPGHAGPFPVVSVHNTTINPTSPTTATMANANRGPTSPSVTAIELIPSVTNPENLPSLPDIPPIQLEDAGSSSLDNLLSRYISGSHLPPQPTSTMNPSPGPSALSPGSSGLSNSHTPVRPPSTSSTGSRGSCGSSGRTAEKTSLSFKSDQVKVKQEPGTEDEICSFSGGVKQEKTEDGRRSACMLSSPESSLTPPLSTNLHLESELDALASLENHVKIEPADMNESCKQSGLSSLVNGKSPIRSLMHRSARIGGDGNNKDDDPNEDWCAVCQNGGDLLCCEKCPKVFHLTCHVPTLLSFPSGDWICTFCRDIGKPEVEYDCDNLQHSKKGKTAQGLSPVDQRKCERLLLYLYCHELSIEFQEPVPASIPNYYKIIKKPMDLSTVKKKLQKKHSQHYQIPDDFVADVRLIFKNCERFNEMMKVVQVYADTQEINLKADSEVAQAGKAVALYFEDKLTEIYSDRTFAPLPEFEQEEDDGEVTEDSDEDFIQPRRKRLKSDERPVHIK
# UniProt Q15025: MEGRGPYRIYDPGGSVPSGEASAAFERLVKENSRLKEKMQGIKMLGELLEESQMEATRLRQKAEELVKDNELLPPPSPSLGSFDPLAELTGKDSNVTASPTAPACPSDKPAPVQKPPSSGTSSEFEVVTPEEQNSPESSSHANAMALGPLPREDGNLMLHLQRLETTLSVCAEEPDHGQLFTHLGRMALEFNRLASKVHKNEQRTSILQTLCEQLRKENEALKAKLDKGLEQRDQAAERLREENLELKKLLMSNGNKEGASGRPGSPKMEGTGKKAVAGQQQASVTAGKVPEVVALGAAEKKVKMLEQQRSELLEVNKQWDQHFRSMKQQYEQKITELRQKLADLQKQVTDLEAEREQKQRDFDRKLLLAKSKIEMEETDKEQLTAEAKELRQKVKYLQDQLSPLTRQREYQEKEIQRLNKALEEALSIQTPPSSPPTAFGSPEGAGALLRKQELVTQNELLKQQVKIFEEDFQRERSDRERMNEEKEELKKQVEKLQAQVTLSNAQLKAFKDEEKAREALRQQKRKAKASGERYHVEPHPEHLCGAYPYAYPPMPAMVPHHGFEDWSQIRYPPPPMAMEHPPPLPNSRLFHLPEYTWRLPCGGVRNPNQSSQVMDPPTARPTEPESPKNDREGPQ
# UniProt Q9H4I3: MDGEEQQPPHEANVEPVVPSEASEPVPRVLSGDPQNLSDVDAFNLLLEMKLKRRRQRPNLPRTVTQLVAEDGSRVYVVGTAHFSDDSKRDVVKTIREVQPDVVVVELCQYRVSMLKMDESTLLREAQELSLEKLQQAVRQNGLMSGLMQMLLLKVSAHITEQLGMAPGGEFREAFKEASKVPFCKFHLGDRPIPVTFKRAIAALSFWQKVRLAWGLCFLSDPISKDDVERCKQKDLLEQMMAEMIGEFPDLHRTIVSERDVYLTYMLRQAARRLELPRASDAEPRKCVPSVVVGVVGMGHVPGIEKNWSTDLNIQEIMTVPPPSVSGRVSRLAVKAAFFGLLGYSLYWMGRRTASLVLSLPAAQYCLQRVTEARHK
# UniProt Q9C037: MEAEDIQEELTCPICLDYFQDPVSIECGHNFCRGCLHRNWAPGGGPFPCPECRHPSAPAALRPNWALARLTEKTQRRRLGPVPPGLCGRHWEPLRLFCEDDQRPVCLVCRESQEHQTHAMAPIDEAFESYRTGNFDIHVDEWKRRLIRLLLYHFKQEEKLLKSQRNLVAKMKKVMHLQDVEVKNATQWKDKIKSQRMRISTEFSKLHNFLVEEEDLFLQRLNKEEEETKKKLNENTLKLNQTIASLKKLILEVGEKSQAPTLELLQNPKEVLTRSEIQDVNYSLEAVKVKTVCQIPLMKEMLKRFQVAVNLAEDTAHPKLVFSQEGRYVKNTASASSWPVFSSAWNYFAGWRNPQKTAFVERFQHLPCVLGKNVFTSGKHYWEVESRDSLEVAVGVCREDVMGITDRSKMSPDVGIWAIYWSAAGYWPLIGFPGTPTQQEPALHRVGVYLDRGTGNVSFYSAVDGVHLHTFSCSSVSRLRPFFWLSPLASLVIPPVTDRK
# UniProt Q9H3H1: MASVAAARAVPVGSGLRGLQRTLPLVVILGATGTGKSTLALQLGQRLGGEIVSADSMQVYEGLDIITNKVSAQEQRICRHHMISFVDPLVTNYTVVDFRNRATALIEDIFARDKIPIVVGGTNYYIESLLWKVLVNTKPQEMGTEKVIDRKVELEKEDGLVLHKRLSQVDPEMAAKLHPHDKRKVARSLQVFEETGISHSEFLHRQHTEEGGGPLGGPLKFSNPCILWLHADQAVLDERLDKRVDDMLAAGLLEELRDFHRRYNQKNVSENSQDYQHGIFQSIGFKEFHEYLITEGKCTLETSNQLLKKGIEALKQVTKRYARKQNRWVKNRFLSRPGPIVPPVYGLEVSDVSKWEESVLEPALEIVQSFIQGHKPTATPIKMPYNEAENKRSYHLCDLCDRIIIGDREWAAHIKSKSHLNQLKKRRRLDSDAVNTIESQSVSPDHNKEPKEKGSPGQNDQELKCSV
# Some of the results follow.
# Compound: CN1CCN(CCOc2cc(OC3CCOCC3)c3c(Nc4c(Cl)ccc5c4OCO5)ncnc3c2)CC1 [saracatinib]
# Assay: log2 fold change, soluble protein after heating vs DMSO (PISA); higher = thermal stabilisation; K562 cells, 10 uM, 30 min; active = over 0.2 and 3.5 SD of the protein, either way, in both replicates (recomputed)
# Method in brief: (§1)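 Values are thermal stability changes relative to control samples and are taken from duplicates. They are stated as log2 fold changes. Before quantification by TMTpro 16plex LC-MS/MS with equalised channel sums, K562 cells at 2×10^6 cells/mL were treated with 10 μM compound for 30 min, heated in aliquots for 3 min across 48°C-58°C, pooled, extracted in PBS with 0.5% NP-40 at 4°C, and centrifuged at 21,000xg for 90 min to give the soluble supernatant.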
row,Target,log2 fold change
1,TPD52 isoform 3 (UniProt P55327),inactive: 0.108
2,TRAPPC2 isoform 3 (UniProt P0DI81),inactive: -0.049
3,TRIM65 (UniProt Q6PJ69),inactive: -0.249
4,TRIP12 isoform 3 (UniProt Q14669),inactive: -0.294
5,TRADD (UniProt Q15628),inactive: -0.163
6,TNK2 isoform 3 (UniProt Q07912),inactive: 0.104
7,TNKS (UniProt O95271),inactive: 0.109
8,TRIM21 (UniProt P19474),inactive: -0.043
9,TRAF3IP1 (UniProt Q8TDR0),inactive: -0.168

# Compound: CN1CCN(c2nc(C3=C(c4c[nH]c5ccccc45)C(=O)NC3=O)c3ccccc3n2)CC1 [sotrastaurin]
# Assay: as above
# Method in brief: as §1
row,Target,log2 fold change
1,TRPT1 isoform 4 (UniProt Q86TN4),inactive: -0.208
2,TOM1 (UniProt O60784),inactive: -0.033
3,TRAM2 (UniProt Q15035),inactive: 0.068
4,TPRA1 (UniProt Q86W33),inactive: -0.083
5,TRIM33 isoform 2 (UniProt Q9UPN9),inactive: -0.017
6,TRAF7 (UniProt Q6Q0C0),inactive: -0.055
7,TPRG1L (UniProt Q5T0D9),inactive: -0.049
8,TNIP1 (UniProt Q15025),inactive: 0.021
9,TPPP3 (UniProt Q9BW30),inactive: -0.107
10,TRIO (UniProt O75962),inactive: -0.086
11,TRABD (UniProt Q9H4I3),inactive: 0.003
12,TSC2 (UniProt P49815),inactive: -0.085
13,TRIM4 (UniProt Q9C037),inactive: 0.024

# Compound: CN1CC[C@H](c2c(O)cc(O)c3c(=O)cc(-c4ccccc4Cl)oc23)[C@H](O)C1 [alvocidib]
# Assay: as above
# Method in brief: as §1
row,Target,log2 fold change
1,TRAPPC2 isoform 3 (UniProt P0DI81),inactive: 0.124
2,TRIM65 (UniProt Q6PJ69),inactive: 0.009
3,TRAPPC6A isoform 2 (UniProt O75865),inactive: -0.251
4,TRAM2 (UniProt Q15035),inactive: -0.101
5,TRAF7 (UniProt Q6Q0C0),inactive: 0.026
6,TRIT1 (UniProt Q9H3H1),inactive: -0.123
7,TRIM21 (UniProt P19474),inactive: -0.077
8,TRAF3IP1 (UniProt Q8TDR0),inactive: 0.145
9,TRPS1 isoform 2 (UniProt Q9UHF7),inactive: 0.097
